These are yes or no findings as the source states them, for the method shown. Binding seen in cells or lysates may run through a third protein. Some results given as binding are weak or reduced against the parent protein; the word gives no strength.
Biological target: phospho-histone deacetylase 3 (human (endogenous in LY-10)) (UniProt O15379)
Assay: co-IP; LY-10 cell lysate; immunoprecipitates captured with Sepharose beads, washed four times with RIPA buffer, analyzed by immunoblotting; which protein was precipitated is not told

The chains behind the UniProt entries cited, without tags or fusion partners.
UniProt O15379: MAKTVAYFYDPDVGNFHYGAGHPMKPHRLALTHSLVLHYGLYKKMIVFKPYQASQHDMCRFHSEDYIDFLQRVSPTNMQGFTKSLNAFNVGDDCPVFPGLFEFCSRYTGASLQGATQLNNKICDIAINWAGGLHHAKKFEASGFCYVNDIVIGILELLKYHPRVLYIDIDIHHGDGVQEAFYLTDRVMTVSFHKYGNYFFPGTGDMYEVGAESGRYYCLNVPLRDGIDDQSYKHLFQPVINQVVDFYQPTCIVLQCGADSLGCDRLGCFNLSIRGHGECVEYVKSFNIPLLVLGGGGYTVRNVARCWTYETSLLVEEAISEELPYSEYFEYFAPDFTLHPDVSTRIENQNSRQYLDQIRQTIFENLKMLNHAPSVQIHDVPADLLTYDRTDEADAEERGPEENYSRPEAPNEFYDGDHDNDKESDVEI

binding: binds
B1: Heme oxygenase-1 (enzyme, UniProt P09601 1-288)
chain: MERPQPDSMPQDLSEALKEATKEVHTQAENAEFMRNFQKGQVTRDGFKLVMASLYHIYVALEEEIERNKESPVFAPVYFPEELHRKAALEQDLAFWYGPRWQEVIPYTPAMQRYVKRLHEVGRTEPELLVAHAYTRYLGDLSGGQVLKKIAQKALDLPSSGEGLAFFTFPNIASATKFKQLYRSRMNSLEMTPAVRQRVIEEAKTAFLLNIQLFEELQELLTHDTKDQSPSRAPGLRQRASNKVQDSAPVETPRGKPPLNTRSQAPLLRWVLTLSFLVATVAVGLYAM
